Laboratory results published in patent publication US20230105029A1.
Positions count from the first letter of the chain named. No constants are given. Whether binding was seen depends on the method and setting. Some results given as binding are weak or reduced against the parent protein; the word gives no strength.

B1: chimeric antibody C2C1A1A1 (antibody, human IgG4 S228P, kappa, V domains shown)
VH: EVQLVESGGGLVQPGGSLKLSCAASGFTFSTYGMSWVRQTPDKRLELVATINSNGGSTSYPDSVKGRFTISRDNAKNTLYLQMSSLKSEDTAMFYCARFFRFRNAMDYWGQGTSVTVSS
VL: DIQMTQSPASLSASVGETVTITCRTSENIYSYLAWYQQKQGKSPQFLVYNAKTLAEGVPSRFSGSGSGTQFSLNINSLQSEDFGSYYCQHYYGPPTWTFGGGTKLEIKR
B2: huC2C1A1A1-V14 (antibody, human IgG4 S228P, kappa, V domains shown)
VH: EVQLVESGGGLVQPGGSLRLSCAASGFTFSTYGMSWVRQAPGKGLVWVATINSNGGSTSYPDSVKGRFTISRDNAKNTLYLQMNSLRAEDTAVYYCARFFRFRNAMDYWGQGTLVTVSS
VL: DIQMTQSPSSLSASVGQRVTITCRTSENIYSYLAWYQQKQGKPPRFLIYNAKTLAEGVPSRFSGSGSGTEFTLTITSLQAEDFGVYYCQHYYGPPTWTFGPGTKLEIKR
B3: chimeric antibody B8G11F2B7G5E8 (antibody, human IgG4 S228P, kappa, V domains shown)
VH: EVQLQQSGADLVRPGASVKLSCTASGFNIKDTYMHWVKQRPEQGLEWVGRIDPTNGYTIYASKFQGKATITADTSSNTAYMQLSSLTSGDTAVYHCVSRRPWFAYWGQGTLVTVSA
VL: DILMTQTPLSLPVSLGAQASISCRSSQSIVHSNGNTYLEWYLQKPGQSPKLLIYKVTNRFSGVPDRFSGSGSGTDFTLKISRVEAEDLGIYYCFQGSHVPYTFGGGTKLEIKR
B4: huB8G11F2B7G5E8-V2 (antibody, human IgG4 S228P, kappa, V domains shown)
VH: EVQLVQSGAEVKKPGATVKISCKVSGFNIKDTYMHWVKQAPGKGLEWVGRIDPTNGYTIYASKFQGKATITADTSSNTAYMELSSLRSEDTAVYHCVSRRPWFAYWGQGTLVTVSS
VL: B3 VL with L3V, P12S, S14T, L15P, A17Q, Q18P, K50Q, L88V, I90V, G105Q
B5: huB8G11F2B7G5E8-V4 (antibody, human IgG4 S228P, kappa, V domains shown)
VH: B4 VH with V24A, V48M
VL: B3 VL with L3V, P12S, S14T, L15P, A17Q, Q18P, K50Q, L88V, I90V, G105Q
B6: huB8G11F2B7G5E8-V14 (antibody, human IgG4 S228P, kappa, V domains shown)
VH: B4 VH with V48M
VL: B3 VL with L3V, P12S, S14T, L15P, A17Q, Q18P, K50Q, L88V, I90V, G105Q

These binders were tested against cynomolgus monkey IL4Rα-his protein (cynomolgus monkey) (assay: SPR (Biacore), antibody captured, cyno IL4Rα-his flowed).

| binding | Binder |
| --- | --- |
| binds | B1 |
| binds | B2 |
| binds | B3 |
| binds | B4 |
| binds | B5 |
| binds | B6 |
